Measured values as given in US20160369115A1, “POLARIZING PLATE COMPOSITION, POLARIZING PLATE PROTECTIVE FILM, POLARIZER, POLARIZING PLATE, LIQUID CRYSTAL DISPLAY DEVICE, AND COMPOUND USED IN THE LIQUID CRYSTAL DISPLAY DEVICE” (FUJIFILM Corporation, priority 2014, published 2016).

Key:
[1] = Bleed-out properties in polarizer (haze evaluation); conditions: haze of polarizing plate; additive in polarizer, added amount 1.0 per 100 parts by mass of polyvinyl alcohol resin
[2] = Evaluation of durability of polarizing plate, additive in polarizer (Example 2); conditions: added amount 1.0 per 100 parts by mass of polyvinyl alcohol resin, 410 nm
[3] = Evaluation of durability of polarizing plate, additive in adhesive layer (Example 3); conditions: added amount 10.0 per 100 parts by mass of the polyvinyl alcohol resin, film thickness 5 μm

**Q.** Which results are given for `COC(=O)Oc1c(Cc2ccccc2)c(=O)n(CS(=O)(=O)[O-])n1C.[Na+]` [Example compound AH]?
**A.** Bleed out [1]: A (The haze was less than 0.3%.); Durability of polarizer: amount of change of degree of polarization (%) 60° C., 95%, 500 hours [2]: A (The amount of change of the orthogonal transmittance before and after the elapse of time was equal to or greater than 0.05% and less than 2.0%.); Durability of polarizer: amount of change of degree of polarization (%) 60° C., 95%, 1,000 hours [2]: A+ (The amount of change of the degree of polarization before and after the elapse of time was less than 1.0%.); Durability of polarizer: amount of change of degree of polarization (%) 80° C., Dry, 500 hours [2]: A (The amount of change of the degree of polarization before and after the elapse of time was equal to or greater than 0.05% and less than 1.0%.); Durability of polarizer: amount of change of degree of polarization (%) 80° C., Dry, 1,000 hours [2]: A+ (The amount of change of the degree of polarization before and after the elapse of time was less than 0.1%.); Durability of polarizer: amount of change of orthogonal transmittance (%) 60° C., 95%, 500 hours [2]: A (The amount of change of the orthogonal transmittance before and after the elapse of time was equal to or greater than 0.1% and less than 0.4%.); Durability of polarizer: amount of change of orthogonal transmittance (%) 60° C., 95%, 1,000 hours [2]: A+ (The amount of change of the orthogonal transmittance before and after the elapse of time was less than 0.5%.); Durability of polarizer: amount of change of orthogonal transmittance (%) 80° C., Dry 500 hours [2]: A (The amount of change of the orthogonal transmittance before and after the elapse of time was equal to or greater than 0.05% and less than 0.1%.); Durability of polarizer: amount of change of orthogonal transmittance (%) 80° C., Dry, 1,000 hours [2]: A+ (The amount of change of the orthogonal transmittance before and after the elapse of time was less than 0.1%.); Durability of polarizer: amount of change of degree of polarization (%) 60° C., 95%, 500 hours [3]: A (The amount of change of the degree of polarization before and after the elapse of time was equal to or greater than 0.05% and less than 2.0%.); Durability of polarizer: amount of change of degree of polarization (%) 60° C., 95%, 1,000 hours [3]: A+ (The amount of change of the degree of polarization before and after the elapse of time was less than 1.0%.); Durability of polarizer: amount of change of degree of polarization (%) 80° C., Dry, 500 hours [3]: A (The amount of change of the degree of polarization before and alter the elapse of time was equal to or greater than 0.05% and less than 1.0%.); Durability of polarizer: amount of change of degree of polarization (%) 80° C., Dry, 1,000 hours [3]: A+ (The amount of change of the degree of polarization before and after the elapse of time was less than 0.1%.); Durability of polarizer: amount of change of orthogonal transmittance (%) 60° C., 95%, 500 hours ([3]; 410 nm): A (The amount of change of the orthogonal transmittance before and after the elapse of time was equal to or greater than 0.1% and less than 0.4%.); Durability of polarizer: amount of change of orthogonal transmittance (%) 60° C., 95%, 1,000 hours ([3]; 410 nm): A+ (The amount of change of the orthogonal transmittance before and after the elapse of time was less than 0.5%.); Durability of polarizer: amount of change of orthogonal transmittance (%) 80° C., Dry 500 hours ([3]; 410 nm): A (The amount of change of the orthogonal transmittance before and after the elapse of time was equal to or greater than 0.05% and less than 0.1%.); Durability of polarizer: amount of change of orthogonal transmittance (%) 80° C., Dry, 1,000 hours ([3]; 410 nm): A+ (The amount of change of the orthogonal transmittance before and after the elapse of time was less than 0.1%.)
